Some results were stated once for a whole list of compounds, not compound by compound.
What was measured:
Botrytis cinerea = experiment: Activity against gray mold on bell-pepper leaves caused by Botrytis cinerea, protective application; format: in vivo; settings: 63 ppm active compound, sprayed to runoff one day before inoculation; bell-pepper seedlings; rated after 5 days; untreated plants 85% infected
Alternaria solani = experiment: Activity against early blight of tomato caused by Alternaria solani; format: in vivo; settings: 63 ppm active compound, sprayed to runoff one day before infection; tomato leaves; rated after 5 days; untreated plants 90% infected

Row | SMILES | infection (extent of the fungal infection on the leaves, determined visually) (Botrytis cinerea) | infection (determined visually) (Alternaria solani)
1 | COc1cc(F)c(-c2c(Cl)nc3ncnn3c2NC(C)C(C)C)cc1OC (centres unmarked) [I-88] | not more than 30% | –
2 | COc1cc(-c2c(Cl)nc3ncnn3c2N[C@H](C)C(C)C)c(Cl)cc1Cl [I-106] | not more than 30% | –
3 | COc1cccc(-c2c(Cl)nc3ncnn3c2N[C@@H](C)C(F)(F)F)c1F [I-38] | not more than 30% | –
4 | COc1ccc(Cl)c(-c2c(Cl)nc3ncnn3c2NC(C)C(C)(C)C)c1 (centres unmarked) [I-172] | not more than 30% | –
5 | COc1ccc(-c2c(Cl)nc3ncnn3c2N2CCCC2C)c(Cl)c1OC (racemic) [I-52] | not more than 30% | –
6 | COc1ccc(Cl)c(-c2c(Cl)nc3ncnn3c2NC(C)C(C)C)c1 (centres unmarked) [I-179] | not more than 30% | –
7 | CCC(C)Nc1c(-c2cccc(OC)c2F)c(Cl)nc2ncnn12 (centres unmarked) [I-30] | not more than 30% | not more than 30%
8 | COc1cc(-c2c(Cl)nc3ncnn3c2N[C@H](C)C(C)(C)C)c(Cl)cc1Cl [I-105] | – | not more than 30%
9 | COc1cc(Cl)c(-c2c(Cl)nc3ncnn3c2N[C@@H](C)C(F)(F)F)cc1OC [I-55] | not more than 30% | –
10 | COc1cc(-c2c(Cl)nc3ncnn3c2N[C@H](C)C(C)C)c(Cl)cc1C#N [I-140] | not more than 30% | –
11 | COC(=O)c1cc(-c2c(Cl)nc3ncnn3c2N[C@H](C)C(C)(C)C)c(Cl)cc1Cl [I-167] | not more than 30% | not more than 30%
12 | C=C(C)CN(CC)c1c(-c2cc(C#N)ccc2Cl)c(Cl)nc2ncnn12 [I-208] | not more than 30% | –
13 | COc1ccc(-c2c(Cl)nc3ncnn3c2N2CCC(C)CC2)c(Cl)c1OC [I-45] | not more than 30% | not more than 30%
14 | CC(C)[C@@H](C)Nc1c(-c2cccc(C#N)c2F)c(Cl)nc2ncnn12 [I-40] | not more than 30% | –
15 | COc1cc(Cl)c(-c2c(Cl)nc3ncnn3c2NC(C)C(C)(C)C)cc1OC (racemic) [I-47] | not more than 30% | not more than 30%
16 | COc1cccc(-c2c(Cl)nc3ncnn3c2N(C)CC(F)(F)F)c1F [I-42] | not more than 30% | –
17 | COC(=O)c1cc(Cl)c(-c2c(Cl)nc3ncnn3c2NCC(F)(F)F)cc1OC [I-149] | not more than 30% | –
18 | C=C(C)CN(CC)c1c(-c2cc(OC)c(F)cc2Cl)c(Cl)nc2ncnn12 [I-116] | not more than 30% | –
19 | COC(=O)c1cccc(-c2c(Cl)nc3ncnn3c2NC(C)C(F)(F)F)c1F (centres unmarked) [I-33] | – | not more than 30%
20 | CC(Nc1c(-c2cccc(C(F)(F)F)c2F)c(Cl)nc2ncnn12)C(C)(C)C (centres unmarked) [I-3] | not more than 30% | –

Row | SMILES | infection (extent of the fungal infection on the leaves, determined visually) (Botrytis cinerea) | infection (determined visually) (Alternaria solani)
21 | CC1CCN(c2c(-c3cccc(C#N)c3Cl)c(Cl)nc3ncnn23)CC1 [I-207] | not more than 30% | –
22 | COC(=O)c1cccc(-c2c(Cl)nc3ncnn3c2N[C@H](C)C(C)(C)C)c1F [I-21] | not more than 30% | –
23 | COC(=O)c1cccc(-c2c(Cl)nc3ncnn3c2N[C@H](C)C(C)C)c1F [I-31] | not more than 30% | –
24 | CC(Nc1c(-c2cc(C(F)(F)F)ccc2F)c(Cl)nc2ncnn12)C(F)(F)F (centres unmarked) [I-184] | not more than 30% | –
25 | COC(=O)c1cccc(-c2c(Cl)nc3ncnn3c2NC(C)C(C)(C)C)c1F (centres unmarked) [I-19] | not more than 30% | –
26 | COc1ccc(Cl)c(-c2c(Cl)nc3ncnn3c2N[C@H](C)C(C)C)c1 [I-176] | not more than 30% | –
27 | COc1ccc(F)c(-c2c(Cl)nc3ncnn3c2N2CCC(C)CC2)c1 [I-24] | not more than 30% | not more than 30%
28 | COc1ccc(F)c(-c2c(Cl)nc3ncnn3c2N2CCCCC2C)c1 (racemic) [I-18] | not more than 30% | –
29 | COc1cc(Cl)c(-c2c(Cl)nc3ncnn3c2N[C@H](C)C(C)(C)C)cc1OC [I-54] | not more than 30% | not more than 30%
30 | COc1cccc(-c2c(Cl)nc3ncnn3c2NCC(F)(F)F)c1F [I-36] | – | not more than 30%
31 | C=C(C)CN(CC)c1c(-c2cccc(OC)c2F)c(Cl)nc2ncnn12 [I-26] | not more than 30% | not more than 30%
32 | COc1cccc(-c2c(Cl)nc3ncnn3c2N[C@H](C)C(C)C)c1F [I-32] | not more than 30% | –
33 | CC(C)C(C)Nc1c(-c2cc(C(F)(F)F)ccc2F)c(Cl)nc2ncnn12 (centres unmarked) [I-190] | not more than 30% | –
34 | COc1ccc(F)c(-c2c(Cl)nc3ncnn3c2N2CCC(C)C2)c1 (racemic) [I-14] | not more than 30% | not more than 30%
35 | COc1cc(-c2c(Cl)nc3ncnn3c2NC(C)C(C)(C)C)c(Cl)cc1Cl (centres unmarked) [I-103] | – | not more than 30%
36 | COc1ccc(Cl)c(-c2c(Cl)nc3ncnn3c2NC(C)C(F)(F)F)c1 (centres unmarked) [I-174] | not more than 30% | –
37 | COc1cccc(-c2c(Cl)nc3ncnn3c2NC(C)C(C)(C)C)c1F (centres unmarked) [I-20] | not more than 30% | not more than 30%
38 | C=C(C)CN(CC)c1c(-c2cccc(C(=O)OC)c2F)c(Cl)nc2ncnn12 [I-25] | not more than 30% | –
39 | COC(=O)c1ccc(Cl)c(-c2c(Cl)nc3ncnn3c2NC(C)C(C)(C)C)c1 (centres unmarked) [I-199] | not more than 30% | –
40 | COc1cc(Cl)c(-c2c(Cl)nc3ncnn3c2NC(C)C(C)C)cc1OC (racemic) [I-48] | not more than 30% | –

Row | SMILES | infection (extent of the fungal infection on the leaves, determined visually) (Botrytis cinerea) | infection (determined visually) (Alternaria solani)
41 | CCC(C)Nc1c(-c2cccc(C(F)(F)F)c2F)c(Cl)nc2ncnn12 (centres unmarked) [I-4] | not more than 30% | –
42 | COC(=O)c1ccc(F)c(-c2c(Cl)nc3ncnn3c2N2CCCC2C)c1 (racemic) [I-15] | not more than 30% | –
43 | COc1cccc(-c2c(Cl)nc3ncnn3c2NC(C)C(C)C)c1F (centres unmarked) [I-28] | not more than 30% | not more than 30%
44 | COc1cc(-c2c(Cl)nc3ncnn3c2NC(C)C(C)(C)C)c(F)cc1Cl (centres unmarked) [I-60] | – | not more than 30%
45 | CC(Nc1c(-c2cc(C#N)ccc2Cl)c(Cl)nc2ncnn12)C(C)(C)C (centres unmarked) [I-215] | not more than 30% | –
46 | COc1ccc(Cl)c(-c2c(Cl)nc3ncnn3c2N[C@H](C)C(C)(C)C)c1 [I-180] | not more than 30% | –
47 | CCC(C)Nc1c(-c2cc(C(F)(F)F)ccc2F)c(Cl)nc2ncnn12 (centres unmarked) [I-185] | not more than 30% | –
48 | COC(=O)c1cc(-c2c(Cl)nc3ncnn3c2NC(C)C(C)(C)C)c(Cl)cc1Cl (centres unmarked) [I-159] | not more than 30% | not more than 30%
49 | COC(=O)c1cc(Cl)c(-c2c(Cl)nc3ncnn3c2N[C@H](C)C(C)C)cc1OC [I-144] | not more than 30% | –
50 | COc1ccc(F)c(-c2c(Cl)nc3ncnn3c2N2CCCC2C)c1 (racemic) [I-16] | not more than 30% | –
51 | COc1cc(-c2c(Cl)nc3ncnn3c2N[C@H](C)C(C)(C)C)c(F)cc1Cl [I-61] | – | not more than 30%
52 | COC(=O)c1ccc(F)c(-c2c(Cl)nc3ncnn3c2N2CCC(C)C2)c1 (racemic) [I-13] | not more than 30% | –
53 | COc1cccc(-c2c(Cl)nc3ncnn3c2NC(C)C(F)(F)F)c1F (centres unmarked) [I-34] | not more than 30% | not more than 30%
54 | COc1cc(F)c(-c2c(Cl)nc3ncnn3c2N(C)CC(F)(F)F)cc1OC [I-98] | – | not more than 30%
55 | COc1cccc(-c2c(Cl)nc3ncnn3c2N[C@H](C)C(C)(C)C)c1F [I-22] | not more than 30% | not more than 30%
56 | CC(C)[C@@H](C)Nc1c(-c2cccc(C(F)(F)F)c2F)c(Cl)nc2ncnn12 [I-7] | not more than 30% | –
57 | COc1cc(Cl)c(-c2c(Cl)nc3ncnn3c2N[C@H](C)C(C)C)cc1OC [I-56] | not more than 30% | –
58 | CCC(C)Nc1c(-c2cc(OC)c(OC)cc2Cl)c(Cl)nc2ncnn12 (racemic) [I-49] | not more than 30% | –
